According to the supplement of paper PMC5949888:
± gives the standard deviation of the averaged measurements. Most values lie at the floor of the assay. Slopes are relative: functional sequences can read slightly below zero.

System: Saccharomyces cerevisiae PS128 hsf1 delta, HSF1(1-493) fusion
Assay: growth estimate (transactivation domain function in HSF1 fusion, heat-shock survival) (a.u. (slope of normalised read count over time)); higher = stronger growth at 37°C, i.e. more transactivation activity
Conditions: library: random library

| Substance | growth estimate |
| --- | --- |
| TDAGCCPLKRSCQAGIGVVG | < -0.25 |
| TDAMAILFVT | < -0.25 |
| TDCLEAGATVYLRMNFEGRD | < -0.25 |
| TDDLSGVHLWTMQRDRIVRA | < -0.25 |
| TDECS | < -0.25 |
| TDG | -0.2497 ± 0.00035 |
| TDGKSGPWIKTYLDGSGSLR | < -0.25 |
| TDIQHGRADTTFSLA | < -0.25 |
| TDIRGTCYASMMRSSSAGFK | < -0.25 |
| TDLEFCW | < -0.25 |
| TDLGKIGHGICWVLLIYVLV | < -0.25 |
| TDLIRWLYTGPVRCWSVIGY | < -0.25 |
| TDQCSYALRTLA | < -0.25 |
| TDQGDHR | < -0.25 |
| TDRLTGFSLRFSIAAALLP | < -0.25 |
| TDRQAMELLIRAAGHNLAS | < -0.25 |
| TDSPHAVLAPTMLGSIRGGH | < -0.25 |
| TDVDGGKWHWGGVAPTWR | < -0.25 |
| TDVESSCERM | < -0.25 |
| TDWFC | < -0.25 |
| TDYHT | < -0.25 |

| Substance | growth estimate |
| --- | --- |
| TDYTEPCRIVLIAPVQIPDL | < -0.25 |
| TEDCSRR | < -0.25 |
| TEDGSSTWGGYLSIR | < -0.25 |
| TEDGTDSRLLRCQEDACHPW | < -0.25 |
| TEDT | < -0.25 |
| TEDTHANVPVNTIAVRCRPP | < -0.25 |
| TEFSREARQGAIWVDCSSRL | < -0.25 |
| TEGE | < -0.25 |
| TEGFVDGRLPAWTFYRVLDA | < -0.25 |
| TEGGQHSRWNVRKLPNRKDA | < -0.25 |
| TEGSWHQVRIPVSTVDVQVG | < -0.25 |
| TEGT | < -0.25 |
| TEGWNSSGFST | -0.246 |
| TEHGIIIGRAALLSLPVT | < -0.25 |
| TEHTLWQVLVGAGGKMTGEG | < -0.25 |
| TEKRPV | < -0.25 |
| TELCEVYQLVYIKAGLLRGA | < -0.25 |
| TELNM | < -0.25 |
| TERCAWVGGCGCRKCRIANP | < -0.25 |
| TERGISEP | < -0.25 |
| TERQVYCG | < -0.25 |

| Substance | growth estimate |
| --- | --- |
| TESDFCSRTAVVYIGSNSSD | < -0.25 |
| TESGGFTSPTNAFKVLGRPR | < -0.25 |
| TESKCLLAH | < -0.25 |
| TESPGYSESLKLLEGS | < -0.25 |
| TETRT | < -0.25 |
| TEYEASQL | < -0.25 |
| TEYGPARLHVMSSPALS | < -0.25 |
| TFA | < -0.25 |
| TFAEMNLTIIR | < -0.25 |
| TFDQSGGFECSRRSLEIRRP | < -0.25 |
| TFGLYLSDGVCDSQAIGAC | < -0.25 |
| TFGQVCTSSGESRDGSGRRR | < -0.25 |
| TFGWYP | < -0.25 |
| TFHEYARSC | < -0.25 |
| TFHVSSRTWFSVRPRLRQSC | < -0.25 |
| TFIGPA | < -0.25 |
| TFLDYDL | < -0.25 |
| TFLLSGQVRGGPGAVDRGLE | < -0.25 |
| TFRIGQTTGLFARPVGLMSV | < -0.25 |
| TFSEDCKSRCIIGAMKNRGG | -0.228 |
| TFSRKSVGTA | < -0.25 |

Reprinted at random: three records from the list

| Substance | growth estimate |
| --- | --- |
| TFHEYARSC | < -0.25 |
| TFGWYP | < -0.25 |
| TETRT | < -0.25 |

For convenience, part of the list above:

| Substance | growth estimate |
| --- | --- |
| TEYEASQL | < -0.25 |
| TEYGPARLHVMSSPALS | < -0.25 |

Continued:

| Substance | growth estimate |
| --- | --- |
| TFSTECLR | < -0.25 |
| TFTVDAIHAQATDEYLRVTE | < -0.25 |
| TFV | < -0.25 |
| TFWGTPSGRKNLGRDMSGPI | < -0.25 |
| TGAS | < -0.25 |
| TGAVPLELVLWIPWVSV | < -0.25 |
| TGCITWNVRAQVPRSRDSFW | < -0.25 |
| TGCRPYTSPQLTYGQILAKS | < -0.25 |
| TGCSGQL | < -0.25 |
| TGDT | < -0.25 |
| TGEFHSLSGIIWRSGVFESG | < -0.25 |
| TGGDPGWIYCHSICFA | < -0.25 |
| TGGRLCCARRFFGPGAFWAM | < -0.25 |
| TGGRLLGISWGLTPSHQRGV | < -0.25 |
| TGGRLPGRISCLIPGVTQAS | < -0.25 |
| TGGWWSGGG | < -0.25 |
| TGGYG | < -0.25 |
| TGHC | < -0.25 |
| TGHY | < -0.25 |
